These are yes or no findings as the source states them, for the method shown. Some entries that bind do so weakly or less than the wild type. Sequences can lack the tags named with a protein.
Target: T1, Human CD73 27-549 with a C-terminal His6-tag, deglycosylated with PNGaseF (human) (UniProt P21589)
T1 sequence (chain, deglycosylated with PNGaseF; glycan remaining at Asn311): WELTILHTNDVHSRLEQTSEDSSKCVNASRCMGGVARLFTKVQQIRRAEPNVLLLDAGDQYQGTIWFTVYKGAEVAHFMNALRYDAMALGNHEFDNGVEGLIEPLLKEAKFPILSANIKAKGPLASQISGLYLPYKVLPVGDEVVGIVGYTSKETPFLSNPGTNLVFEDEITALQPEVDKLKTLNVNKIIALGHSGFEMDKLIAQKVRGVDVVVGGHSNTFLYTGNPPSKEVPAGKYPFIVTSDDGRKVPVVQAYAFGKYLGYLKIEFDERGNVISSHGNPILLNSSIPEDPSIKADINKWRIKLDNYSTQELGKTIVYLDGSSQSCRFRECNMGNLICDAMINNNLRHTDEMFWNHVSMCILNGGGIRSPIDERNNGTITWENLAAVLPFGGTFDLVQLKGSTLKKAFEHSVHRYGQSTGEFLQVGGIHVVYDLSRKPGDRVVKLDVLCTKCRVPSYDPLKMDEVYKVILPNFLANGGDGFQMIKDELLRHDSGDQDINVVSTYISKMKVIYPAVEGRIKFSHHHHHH
Assay: X-ray co-crystal structure

binding: binds
B1: TB19 Fab (Fab, V domains shown)
VH: QEQLQESGPGLVKPSETLSLTCTVSGGSIRNNYYNWIRQPAGKGLEWIGRIYISGTTNSNPSLKSRVTMSIDTSKNQFSLKLSSVTAADTAIYYCAREHYVSGTSLDNWGQGTLVTVSS
VL: EIVMTQSPTTLSLSPGERATLSCRASQSVNTNYFSWYQQKPGLTPRLLIYGTSTRATGIPARFSGSGSGTDFTLTISSLQPEDFGIYYCQQDYNLPYTFGQGTYLEIK
